Measurements reported in PubChem BioAssay AID1508588 (Peter MacCallum Cancer Centre, 2020).

Aim: 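Genome-wide search for knock-downs that heighten vemurafenib action in melanoma cells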 (primary screen)
Cell system: human WM266.4 melanoma cells (BRAF V600 mutant)
Knock-down reagent: siRNA pool against human genes, 40 nM
Timing: 96 h from transfection to read-out
Treatment: vemurafenib 300 nM (about IC25), added 48 h after transfection, for 48 h; comparison arm got DMSO vehicle only
Measurement: 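Cell gain (DAPI nuclei at end minus before drug, mean of two replicates) and medium lactate by absorbance per cell, both as ratio to non-targeting siRNA, also grouped into fold-change classes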
Reading the numbers: cell gain with vemurafenib: higher = more cell gain than with non-targeting siRNA; lactate per cell with vemurafenib: higher = more lactate made per cell
Call rule: 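Enhancement is called by pairing each knock-down's vehicle-arm and drug-arm fold-change classes for viability or glycolysis; which class combinations qualify is not given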
Calls: active = enhances vemurafenib effect; inactive = no enhancement seen
The deposit covers about 18,000 reagents; this is a random part of them. Of all reagents, 790 (4.4%) were called active. 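Calls rest on a combination of fold-change classes in drug and vehicle arms, not all shown here.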 Some reagents were tested in more than one well and are listed for each. Reagent sequences are not shown.

gene	cell gain with vemurafenib	lactate per cell with vemurafenib	outcome
TMEM102	1.08	0.99	inactive
CXCR4	0.14	2.45	inactive
EHD1	0.27	1.2	inactive
ESRRB	0.32	1	inactive
GCC2	0.49	0.84	inactive
DOK1	0.45	2.23	inactive
ARRB2	0.52	0.94	inactive
MMP17	0.46	1.62	inactive
GABRA3	0.78	0.82	inactive
SNRPB	0.07	1.31	inactive
RPRD1B	0.9	0.89	inactive
SAMD1	0.58	0.83	inactive
QPCT	0.9	0.48	inactive
RTRAF	0.41	1.14	inactive
GPD2	0.47	0.22	inactive
HS3ST6	0.7	1.49	inactive
HAND2	0.46	0.26	inactive
PUS7L	0.72	0.68	inactive
NEXMIF	0.52	0.41	inactive
SCRT1	0.16	1.32	inactive
ZBTB24	0.66	0.8	inactive
CDC42EP5	0.07	2.73	inactive
SIAH3	0.57	1.09	inactive
BOK	0.55	0.92	inactive
SHPK	0.81	0.76	inactive
TRIP13	0.7	1.17	inactive
OR4X1	0.64	1.4	inactive
SCRT2	0.63	1.32	inactive
KBTBD4	0	3.17	inactive
SKA3	0.29	2	inactive
CLEC2D	0.51	1.72	inactive
FICD	0.36	0.34	inactive
ACSS2	0.5	1.43	inactive
GATC	0.55	0.56	inactive
DNAJC15	0.51	1.5	inactive
TNNT2	0.19	1.06	inactive
ZC3H13	0.77	1.5	inactive
SEMA5A	0.21	1.4	inactive
KNSTRN	0.35	0.92	inactive
ZNF41	0.31	0.54	inactive
ARHGAP31	0.68	1.31	inactive
P2RY12	0.34	0.57	active
TSSK3	0.33	1.31	inactive
DGKD	0.73	0.52	inactive
TMEM92	0.93	1.57	inactive
TRIM60	1.12	0.66	inactive
SKP1	0.41	1.66	inactive
PKDREJ	0.93	0.2	inactive
SLC25A36	0.2	1.91	inactive
FAHD2A	0.19	1.4	inactive
TEKT4	0.82	0.73	inactive
TEF	0.51	0.9	inactive
TFAP2B	0.74	0.78	inactive
SLC31A2	0.45	1.35	inactive
LMOD3	0.88	1.4	inactive
RPS6KA5	0.25	1.31	inactive
ACAD11	0.6	0.88	inactive
RPL23A	-0.08	1.27	inactive
SLC2A12	0.54	0.38	inactive
TOX4	0.25	2.27	inactive
RELL2	0.59	0.96	inactive
FZD10	0.24	0.57	inactive
LYPD6	1.2	0.48	inactive
SND1	0.87	0.67	inactive
SDHC	0.7	1.12	inactive
MSH2	0.52	0.73	inactive
ARRDC1	0.89	0.85	inactive
CPB2	0.36	0.56	inactive
PPIL4	0.19	1.51	inactive
PARVB	0.55	0.9	inactive
MAGED1	0.42	1.14	inactive
ATP5PB	0.13	1	inactive
TM7SF2	0.14	3.19	inactive
FNDC8	0.32	2.02	inactive
GTF3A	0.47	0.99	inactive
ANP32B	1.06	0.58	inactive
MILR1	0.16	1.46	inactive
WDTC1	0.54	1.66	inactive
UBE2U	0.86	0.9	inactive
CCAR2	0.21	1.59	inactive
GRP	0.19	0.96	inactive
NAA60	0.54	1.23	inactive
RHOXF2	0.38	2.22	inactive
SYNE2	0.34	2.19	inactive
CAMK2N2	0.4	0.54	inactive
PNP	0.71	0.74	inactive
TRAPPC1	0.37	-0.05	active
ADAM32	0.91	0.98	inactive
METTL18	0.48	0.5	inactive
PLEKHG1	0.2	1.54	inactive
L3HYPDH	0.7	0.8	inactive
ITPKC	0.52	0.64	inactive
KLRG1	0.68	1.24	inactive
PTGER3	0.75	0.81	inactive
OR4P4	1.26	0.68	inactive
SFT2D2	0.62	1.58	inactive
KRTAP21-1	0.43	0.57	inactive
AMBN	0.57	1.32	inactive
C1QTNF1	1.03	0.94	inactive
PCGF5	0.89	0.84	inactive
KIF4A	0.08	2.58	inactive
TENT2	0.92	0.48	inactive
RNF150	0.98	0.74	inactive
RNF150	0.97	0.96	inactive
SHC3	0.5	0.1	inactive
H1-2	0.36	1.23	inactive
PRM1	0.7	0.84	inactive

In a second layout: 5 of the entries above
gene,cell gain with vemurafenib,lactate per cell with vemurafenib,outcome
RELL2,0.59,0.96,inactive
FZD10,0.24,0.57,inactive
LYPD6,1.2,0.48,inactive
SND1,0.87,0.67,inactive
SDHC,0.7,1.12,inactive
